From PMC11234063, “Eugenol and lidocaine inhibit voltage-gated Na^+ channels from dorsal root ganglion neurons with different mechanisms” (Frontiers in Pharmacology, 2024)
Several values for one entry are separate records, joined by “and”; a condition that tells them apart may be missing. Equal entries are not always repeated.

Test system: DRG neurons
Assay: Membrane resistance, hyperpolarizing pulse to −130 mV
Format: cell-based, rat
Conditions: EUG 3 mM

C=CCc1ccc(O)c(OC)c1 [EUG, 4-allyl-2-methoxyphenol]
Membrane resistance of individual cells after exposure: 148.9 MΩ and 137.89 MΩ and 372.68 MΩ and 102.77 MΩ and 96.73 MΩ and 335.87 MΩ and 478.4 MΩ and 443.12 MΩ and 619.22 MΩ and 153.08 MΩ and 87.91 MΩ and 171.41 MΩ and 172.79 MΩ and 163.83 MΩ and 828.28 MΩ and 690.18 MΩ and 188.31 MΩ and 188.3 MΩ and 155.05 MΩ
